According to the supplement of paper PMC10849652:
The other results are listed elsewhere or left out.

Chains of the proteins cited; added tags and fusions are not shown. Lines headed by an entry give the natural chain unless they say otherwise; changes in a name come on top.
UniProt Q15398: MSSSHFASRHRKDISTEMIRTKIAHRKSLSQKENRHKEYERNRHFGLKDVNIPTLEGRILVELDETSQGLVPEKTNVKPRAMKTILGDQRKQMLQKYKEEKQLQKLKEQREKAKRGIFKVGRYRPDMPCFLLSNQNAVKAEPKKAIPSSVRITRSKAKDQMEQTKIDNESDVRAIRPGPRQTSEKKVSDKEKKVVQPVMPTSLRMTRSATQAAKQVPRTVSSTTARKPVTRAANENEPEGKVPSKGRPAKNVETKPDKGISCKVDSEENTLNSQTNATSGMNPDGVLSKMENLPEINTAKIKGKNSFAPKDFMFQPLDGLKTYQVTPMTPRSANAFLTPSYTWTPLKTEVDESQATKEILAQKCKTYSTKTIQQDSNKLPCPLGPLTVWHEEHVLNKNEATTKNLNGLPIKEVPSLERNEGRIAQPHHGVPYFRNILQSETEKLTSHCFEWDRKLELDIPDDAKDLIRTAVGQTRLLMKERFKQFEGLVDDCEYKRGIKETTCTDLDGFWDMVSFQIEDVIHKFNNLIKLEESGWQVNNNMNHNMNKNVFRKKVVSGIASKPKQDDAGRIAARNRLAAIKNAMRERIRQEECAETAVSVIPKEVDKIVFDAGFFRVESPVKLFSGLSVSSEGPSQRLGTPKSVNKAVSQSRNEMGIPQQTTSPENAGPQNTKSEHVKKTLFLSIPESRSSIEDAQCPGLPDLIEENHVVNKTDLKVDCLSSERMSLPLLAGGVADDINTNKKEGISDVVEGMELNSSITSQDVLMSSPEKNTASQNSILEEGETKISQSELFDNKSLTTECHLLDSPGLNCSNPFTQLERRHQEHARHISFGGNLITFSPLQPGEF
UniProt Q9Y394: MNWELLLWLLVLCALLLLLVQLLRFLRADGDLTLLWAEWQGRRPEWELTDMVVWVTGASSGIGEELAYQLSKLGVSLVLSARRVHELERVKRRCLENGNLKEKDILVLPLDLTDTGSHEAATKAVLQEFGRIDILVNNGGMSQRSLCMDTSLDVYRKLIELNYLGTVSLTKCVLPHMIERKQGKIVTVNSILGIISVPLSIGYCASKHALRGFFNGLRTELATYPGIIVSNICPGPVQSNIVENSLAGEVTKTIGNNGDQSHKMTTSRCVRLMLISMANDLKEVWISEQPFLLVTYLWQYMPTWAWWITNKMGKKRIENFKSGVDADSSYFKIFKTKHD
UniProt Q96KC8: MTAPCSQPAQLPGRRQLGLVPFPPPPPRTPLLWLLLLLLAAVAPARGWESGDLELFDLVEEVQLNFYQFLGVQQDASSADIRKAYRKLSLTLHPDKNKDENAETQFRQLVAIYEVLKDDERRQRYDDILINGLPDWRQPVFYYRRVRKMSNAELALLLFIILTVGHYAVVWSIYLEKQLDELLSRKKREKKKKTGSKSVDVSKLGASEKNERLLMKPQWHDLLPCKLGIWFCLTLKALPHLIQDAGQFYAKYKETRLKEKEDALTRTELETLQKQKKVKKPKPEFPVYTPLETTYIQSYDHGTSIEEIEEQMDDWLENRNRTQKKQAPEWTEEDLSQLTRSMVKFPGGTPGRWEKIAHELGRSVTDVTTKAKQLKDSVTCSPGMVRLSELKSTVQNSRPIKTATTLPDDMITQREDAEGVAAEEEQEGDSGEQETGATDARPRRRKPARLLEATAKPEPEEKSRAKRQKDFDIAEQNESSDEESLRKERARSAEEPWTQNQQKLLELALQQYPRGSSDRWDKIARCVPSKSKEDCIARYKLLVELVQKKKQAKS
UniProt Q8IX18: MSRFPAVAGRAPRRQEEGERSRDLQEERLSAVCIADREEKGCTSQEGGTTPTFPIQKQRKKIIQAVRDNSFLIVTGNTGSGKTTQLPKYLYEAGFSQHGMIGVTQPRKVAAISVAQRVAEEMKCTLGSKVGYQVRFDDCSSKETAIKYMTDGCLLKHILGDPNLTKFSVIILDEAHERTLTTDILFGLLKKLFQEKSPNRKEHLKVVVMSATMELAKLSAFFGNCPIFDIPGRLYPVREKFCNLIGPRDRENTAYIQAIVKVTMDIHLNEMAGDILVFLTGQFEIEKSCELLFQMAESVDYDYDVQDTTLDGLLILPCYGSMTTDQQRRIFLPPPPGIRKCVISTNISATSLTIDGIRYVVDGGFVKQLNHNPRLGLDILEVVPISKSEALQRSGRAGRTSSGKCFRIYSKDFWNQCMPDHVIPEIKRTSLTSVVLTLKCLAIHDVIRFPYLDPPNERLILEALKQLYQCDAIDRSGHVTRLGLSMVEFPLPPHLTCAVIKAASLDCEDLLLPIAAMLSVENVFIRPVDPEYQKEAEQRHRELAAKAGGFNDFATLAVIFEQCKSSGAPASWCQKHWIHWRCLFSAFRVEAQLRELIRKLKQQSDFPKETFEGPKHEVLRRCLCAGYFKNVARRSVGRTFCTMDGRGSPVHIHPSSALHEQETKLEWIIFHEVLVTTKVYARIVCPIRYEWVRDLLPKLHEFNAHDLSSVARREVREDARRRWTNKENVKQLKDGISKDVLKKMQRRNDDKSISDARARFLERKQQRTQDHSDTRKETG
UniProt Q8NDZ4: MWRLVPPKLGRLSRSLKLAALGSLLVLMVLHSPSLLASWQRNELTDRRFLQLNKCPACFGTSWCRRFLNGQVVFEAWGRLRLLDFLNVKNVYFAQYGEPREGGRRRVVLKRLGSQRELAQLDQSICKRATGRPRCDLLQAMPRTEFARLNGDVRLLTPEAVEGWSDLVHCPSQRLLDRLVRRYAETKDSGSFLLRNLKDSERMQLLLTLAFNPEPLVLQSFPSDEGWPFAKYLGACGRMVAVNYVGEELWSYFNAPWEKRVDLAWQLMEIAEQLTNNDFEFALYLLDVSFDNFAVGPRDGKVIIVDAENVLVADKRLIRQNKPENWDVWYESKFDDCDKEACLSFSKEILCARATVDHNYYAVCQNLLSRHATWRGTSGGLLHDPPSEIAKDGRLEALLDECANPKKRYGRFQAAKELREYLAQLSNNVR
UniProt Q9UDY4: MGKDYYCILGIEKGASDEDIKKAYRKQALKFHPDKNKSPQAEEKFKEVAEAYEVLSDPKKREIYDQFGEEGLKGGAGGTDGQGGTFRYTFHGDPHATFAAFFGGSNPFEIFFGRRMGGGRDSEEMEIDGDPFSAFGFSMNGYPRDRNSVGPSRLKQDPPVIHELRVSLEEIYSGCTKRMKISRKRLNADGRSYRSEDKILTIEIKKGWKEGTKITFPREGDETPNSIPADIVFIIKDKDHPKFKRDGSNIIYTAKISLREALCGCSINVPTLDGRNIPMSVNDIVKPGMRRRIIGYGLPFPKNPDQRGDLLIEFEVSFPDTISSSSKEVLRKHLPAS
UniProt Q9BTC0, whole entry, looked up: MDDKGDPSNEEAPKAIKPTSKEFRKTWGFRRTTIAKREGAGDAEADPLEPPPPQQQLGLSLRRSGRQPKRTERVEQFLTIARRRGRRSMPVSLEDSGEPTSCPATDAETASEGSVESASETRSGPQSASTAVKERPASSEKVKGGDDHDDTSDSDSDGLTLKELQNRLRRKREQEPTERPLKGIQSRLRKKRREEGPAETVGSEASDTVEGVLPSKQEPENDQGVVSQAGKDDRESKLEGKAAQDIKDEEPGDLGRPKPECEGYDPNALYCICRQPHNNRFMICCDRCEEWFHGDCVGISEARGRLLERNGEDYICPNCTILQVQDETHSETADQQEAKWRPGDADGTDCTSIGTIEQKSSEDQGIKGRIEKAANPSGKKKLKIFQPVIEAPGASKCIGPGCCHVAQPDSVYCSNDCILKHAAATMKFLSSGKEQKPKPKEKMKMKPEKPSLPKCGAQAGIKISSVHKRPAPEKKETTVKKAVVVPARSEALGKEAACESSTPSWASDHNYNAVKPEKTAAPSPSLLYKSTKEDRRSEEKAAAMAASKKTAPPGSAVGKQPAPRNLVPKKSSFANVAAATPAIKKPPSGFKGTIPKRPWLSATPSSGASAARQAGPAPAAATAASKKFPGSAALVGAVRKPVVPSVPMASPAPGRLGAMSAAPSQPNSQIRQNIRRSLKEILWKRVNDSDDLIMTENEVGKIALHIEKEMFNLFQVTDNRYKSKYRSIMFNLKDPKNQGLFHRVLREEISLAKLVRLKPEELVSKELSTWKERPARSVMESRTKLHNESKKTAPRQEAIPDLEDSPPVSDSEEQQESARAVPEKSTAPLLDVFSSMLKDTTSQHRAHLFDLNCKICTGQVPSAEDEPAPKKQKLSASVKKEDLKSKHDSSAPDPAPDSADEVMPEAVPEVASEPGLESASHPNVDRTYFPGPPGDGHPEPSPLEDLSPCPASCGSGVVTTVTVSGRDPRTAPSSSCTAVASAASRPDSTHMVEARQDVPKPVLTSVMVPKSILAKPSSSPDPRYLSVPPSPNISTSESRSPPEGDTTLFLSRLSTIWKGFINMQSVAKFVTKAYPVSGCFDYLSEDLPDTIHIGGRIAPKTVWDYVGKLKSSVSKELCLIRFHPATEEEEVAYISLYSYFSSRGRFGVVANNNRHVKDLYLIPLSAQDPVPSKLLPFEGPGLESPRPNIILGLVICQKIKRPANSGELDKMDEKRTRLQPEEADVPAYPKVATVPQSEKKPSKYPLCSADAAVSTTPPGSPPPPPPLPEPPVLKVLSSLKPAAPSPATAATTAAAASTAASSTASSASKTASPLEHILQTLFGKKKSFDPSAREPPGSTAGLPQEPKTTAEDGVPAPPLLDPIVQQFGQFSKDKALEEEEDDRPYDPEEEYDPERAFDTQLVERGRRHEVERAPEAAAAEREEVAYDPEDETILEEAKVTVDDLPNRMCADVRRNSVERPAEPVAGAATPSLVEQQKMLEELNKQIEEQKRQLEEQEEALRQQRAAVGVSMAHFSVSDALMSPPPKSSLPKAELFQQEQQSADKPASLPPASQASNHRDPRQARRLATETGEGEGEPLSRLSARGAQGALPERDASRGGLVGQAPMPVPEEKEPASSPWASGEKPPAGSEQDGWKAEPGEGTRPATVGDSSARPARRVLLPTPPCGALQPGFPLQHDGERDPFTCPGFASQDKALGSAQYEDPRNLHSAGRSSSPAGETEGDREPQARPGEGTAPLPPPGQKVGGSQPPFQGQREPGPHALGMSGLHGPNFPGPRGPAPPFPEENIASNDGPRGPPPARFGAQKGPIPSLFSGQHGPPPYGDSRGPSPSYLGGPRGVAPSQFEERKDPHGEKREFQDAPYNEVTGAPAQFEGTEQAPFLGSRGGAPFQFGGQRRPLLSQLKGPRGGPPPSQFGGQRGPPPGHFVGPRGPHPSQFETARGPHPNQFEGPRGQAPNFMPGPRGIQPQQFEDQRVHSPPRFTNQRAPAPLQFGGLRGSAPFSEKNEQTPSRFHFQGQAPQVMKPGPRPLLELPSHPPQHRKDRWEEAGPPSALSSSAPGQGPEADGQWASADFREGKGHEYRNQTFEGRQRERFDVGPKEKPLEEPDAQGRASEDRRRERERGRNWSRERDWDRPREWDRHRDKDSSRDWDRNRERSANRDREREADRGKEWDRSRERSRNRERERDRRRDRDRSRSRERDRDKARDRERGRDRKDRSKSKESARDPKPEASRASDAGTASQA
UniProt P25685, whole entry, looked up: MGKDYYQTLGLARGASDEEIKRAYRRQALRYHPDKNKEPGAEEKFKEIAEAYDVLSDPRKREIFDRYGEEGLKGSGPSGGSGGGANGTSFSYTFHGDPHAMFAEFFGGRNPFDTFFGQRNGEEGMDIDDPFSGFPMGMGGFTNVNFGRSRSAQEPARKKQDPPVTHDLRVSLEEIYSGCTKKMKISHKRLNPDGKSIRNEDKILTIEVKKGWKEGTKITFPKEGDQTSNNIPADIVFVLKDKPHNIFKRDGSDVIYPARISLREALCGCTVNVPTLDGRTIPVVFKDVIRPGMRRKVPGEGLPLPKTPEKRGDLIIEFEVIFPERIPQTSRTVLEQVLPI
UniProt Q9NXW2: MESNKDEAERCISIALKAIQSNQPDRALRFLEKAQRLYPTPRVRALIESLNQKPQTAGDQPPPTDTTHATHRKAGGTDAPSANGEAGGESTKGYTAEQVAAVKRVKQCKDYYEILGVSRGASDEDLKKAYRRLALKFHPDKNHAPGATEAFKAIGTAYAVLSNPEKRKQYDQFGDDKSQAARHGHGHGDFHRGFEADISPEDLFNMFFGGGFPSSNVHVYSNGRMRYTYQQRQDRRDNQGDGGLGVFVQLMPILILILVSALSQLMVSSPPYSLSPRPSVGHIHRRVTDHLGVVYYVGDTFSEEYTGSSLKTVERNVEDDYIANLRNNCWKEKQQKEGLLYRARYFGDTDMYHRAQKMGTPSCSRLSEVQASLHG
UniProt Q86SQ9: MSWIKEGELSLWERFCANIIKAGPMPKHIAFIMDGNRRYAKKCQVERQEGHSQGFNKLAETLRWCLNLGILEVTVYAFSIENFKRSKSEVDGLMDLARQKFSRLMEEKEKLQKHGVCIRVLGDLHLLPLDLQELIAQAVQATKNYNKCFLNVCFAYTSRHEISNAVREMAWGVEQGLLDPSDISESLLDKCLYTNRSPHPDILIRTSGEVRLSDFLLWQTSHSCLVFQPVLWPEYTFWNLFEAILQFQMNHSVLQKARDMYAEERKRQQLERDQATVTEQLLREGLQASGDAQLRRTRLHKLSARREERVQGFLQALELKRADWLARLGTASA

Key:
Experiment in all cases: log2 fold change, soluble protein after heating vs DMSO (PISA); higher = thermal stabilisation; K562 lysate, 10 uM; active = over 0.2 and 3.5 SD of the protein, either way, in both replicates (recomputed)
vemurafenib = compound: CCCS(=O)(=O)Nc1ccc(F)c(C(=O)c2c[nH]c3ncc(-c4ccc(Cl)cc4)cc23)c1F [vemurafenib]
Method in brief: (§1)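 Quantification was by TMTpro 16plex LC-MS/MS with equalised channel sums, applied to the supernatant after 21,000xg for 90 min. Samples were crude K562 extract at 1 mg/mL protein in PBS pH 7.4 with 1 mM MgCl2, treated with 10 μM compound for 30 min, heated for 3 min across 48°C-58°C, pooled and brought to 0.5% NP-40 at 4°C. Values are log-two fold changes in thermal stability relative to solvent controls, from duplicates.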

[1] = compound: CCCS(=O)(=O)Nc1ccc(F)c(C(=O)c2c[nH]c3ncc(Cl)cc23)c1F
Method in brief: as §1

barasertib = compound: CCN(CCCOc1ccc2c(Nc3cc(CC(=O)Nc4cccc(F)c4)[nH]n3)ncnc2c1)CCOP(=O)(O)O [barasertib]
Method in brief: as §1

[2] = compound: CC[C@@H]1C(=O)N(C)c2cnc(Nc3ccc(C(=O)NC4CCN(C)CC4)cc3OC)nc2N1C1CCCC1
Method in brief: as §1

volasertib = compound: CC[C@@H]1C(=O)N(C)c2cnc(Nc3ccc(C(=O)N[C@H]4CC[C@H](N5CCN(CC6CC6)CC5)CC4)cc3OC)nc2N1C(C)C [volasertib]
Method in brief: as §1

[3] = compound: CCn1c(C(=O)N(C2CC2)C2CC2)cc2c3c(ncn3C)c(Nc3cc(C)n(C)n3)nc21
Method in brief: as §1

[4] = compound: CCn1cc(-c2ccnc3[nH]c(-c4cccc(CN(C)C)c4)cc23)c(-c2ccc(NC(=O)N(C)C)cc2)n1
Method in brief: as §1

[5] = compound: CN1CCC(CNc2ccc3ncc(-c4cccc(OC(F)(F)F)c4)n3n2)CC1
Method in brief: as §1

saracatinib = compound: CN1CCN(CCOc2cc(OC3CCOCC3)c3c(Nc4c(Cl)ccc5c4OCO5)ncnc3c2)CC1 [saracatinib]
Method in brief: as §1

sotrastaurin = compound: CN1CCN(c2nc(C3=C(c4c[nH]c5ccccc45)C(=O)NC3=O)c3ccccc3n2)CC1 [sotrastaurin]
Method in brief: as §1

| Target | log2 fold change (vemurafenib) | log2 fold change [1] | log2 fold change (barasertib) | log2 fold change [2] | log2 fold change (volasertib) | log2 fold change [3] | log2 fold change [4] | log2 fold change [5] | log2 fold change (saracatinib) | log2 fold change (sotrastaurin) |
| --- | --- | --- | --- | --- | --- | --- | --- | --- | --- | --- |
| DLGAP5 (UniProt Q15398) | inactive: 0.01 | inactive: 0.009 | inactive: 0.007 | inactive: -0.018 | inactive: -0.013 | inactive: 0 | inactive: -0.024 | inactive: 0.019 | inactive: 0.013 | inactive: -0.004 |
| DNAH9 (UniProt Q9NYC9) | inactive: -0.021 | inactive: -0.049 | inactive: -0.05 | inactive: 0.048 | inactive: 0.043 | inactive: -0.034 | inactive: -0.043 | inactive: 0.012 | inactive: -0.07 | inactive: 0.002 |
| DICER1 (UniProt Q9UPY3) | inactive: -0.002 | inactive: 0.05 | inactive: 0.01 | inactive: 0.003 | inactive: -0.068 | inactive: 0.021 | inactive: 0.275 | inactive: 0.036 | inactive: 0.005 | inactive: -0.018 |
| DIS3 (UniProt Q9Y2L1) | inactive: 0.01 | inactive: 0.02 | inactive: 0.017 | inactive: -0.022 | inactive: -0.022 | inactive: 0.018 | inactive: -0.004 | inactive: -0.005 | inactive: 0.011 | inactive: 0.008 |
| DHRS7 (UniProt Q9Y394) | inactive: 0.082 | inactive: -0.009 | inactive: -0.07 | inactive: 0.019 | inactive: 0.021 | inactive: -0.012 | inactive: -0.135 | inactive: 0.096 | inactive: 0.006 | inactive: 0.013 |
| DNAJC1 (UniProt Q96KC8) | inactive: -0.019 | inactive: 0.006 | inactive: 0.053 | inactive: 0.017 | inactive: -0.012 | inactive: 0.067 | inactive: 0.033 | active: -0.293 | inactive: 0.029 | inactive: -0.002 |
| DHRS1 (UniProt Q96LJ7) | inactive: 0.436 | inactive: 0.187 | inactive: 0.053 | inactive: -0.045 | inactive: 0.012 | inactive: -0.029 | inactive: -0.042 | inactive: -0.05 | inactive: 0.001 | inactive: 0.026 |
| DHX40 (UniProt Q8IX18) | inactive: -0.009 | inactive: 0.061 | inactive: 0.052 | inactive: -0.052 | inactive: 0.048 | inactive: 0.013 | inactive: -0.083 | inactive: 0.011 | inactive: -0.016 | inactive: 0.041 |
| DIPK2A (UniProt Q8NDZ4) | inactive: 0.026 | inactive: 0.02 | inactive: 0.024 | inactive: 0.214 | inactive: -0.023 | inactive: 0.002 | inactive: 0.001 | inactive: -0.08 | inactive: 0 | inactive: -0.063 |
| DNAJB4 (UniProt Q9UDY4) | inactive: 0.005 | inactive: -0.007 | inactive: 0.072 | inactive: 0.012 | inactive: -0.112 | inactive: 0.04 | inactive: 0.011 | inactive: -0.013 | inactive: 0.011 | inactive: -0.019 |
| DGKA (UniProt P23743) | inactive: 0.094 | inactive: 0.021 | inactive: 0.081 | inactive: -0.091 | inactive: -0.15 | inactive: -0.229 | inactive: 0.031 | inactive: -0.125 | inactive: -0.097 |  |
| DIDO1 (UniProt Q9BTC0) | inactive: 0.028 | inactive: 0.017 | inactive: -0.035 | inactive: -0.015 | inactive: 0.006 | inactive: -0.02 | inactive: 0.019 | inactive: 0.001 | inactive: 0.012 | inactive: 0.026 |
| DNPH1 (UniProt H0Y8X4) | inactive: -0.049 | inactive: 0.009 | inactive: 0 | inactive: -0.05 | inactive: 0.013 | inactive: 0.022 | inactive: -0.041 | inactive: 0.058 | inactive: -0.038 | inactive: 0.004 |
| DIP2B (UniProt Q9P265) | inactive: 0.017 | inactive: 0.001 | inactive: 0.006 | inactive: -0.018 | inactive: 0.015 | inactive: -0.04 | inactive: -0.067 | inactive: 0.015 | inactive: -0.011 | inactive: 0.014 |
| DNAJC13 (UniProt O75165) | inactive: 0.011 | inactive: 0.005 | inactive: 0.052 | inactive: 0.037 | inactive: -0.023 | inactive: -0.014 | inactive: -0.066 | inactive: 0.067 | inactive: -0.023 | inactive: 0.025 |
| DIMT1 (UniProt Q9UNQ2) | inactive: -0.035 | inactive: 0.016 | inactive: 0.011 | inactive: -0.043 | inactive: 0.002 | inactive: 0.021 | inactive: 0.054 | inactive: -0.012 | inactive: -0.002 | inactive: -0.012 |
| DIS3L (UniProt Q8TF46) | inactive: -0.033 | inactive: 0.075 | inactive: 0.025 | inactive: -0.003 | inactive: -0.048 | inactive: 0.026 | inactive: -0.02 | inactive: -0.013 | inactive: 0.103 | inactive: 0.037 |
| DNAJB1 (UniProt P25685) | inactive: -0.066 | inactive: 0.002 | inactive: 0.03 | inactive: 0.053 | inactive: -0.054 | inactive: 0.059 | inactive: -0.035 | inactive: -0.05 | inactive: 0.012 | inactive: -0.024 |
| DOK3 (UniProt Q7L591) | inactive: -0.041 | inactive: 0.039 | inactive: -0.054 | inactive: 0.192 | inactive: 0.008 | inactive: 0.062 | inactive: -0.127 | inactive: 0.178 | inactive: -0.018 | inactive: 0.023 |
| DHRS2 (UniProt Q13268) | inactive: 0.001 | inactive: 0 | inactive: 0.066 | inactive: 0.011 | inactive: 0.028 | inactive: 0.046 | inactive: 0.024 | inactive: -0.118 | inactive: -0.026 | inactive: -0.036 |
| DHRS4 (UniProt Q9BTZ2) | inactive: 0.014 | inactive: -0.017 | inactive: -0.03 | inactive: 0.019 | inactive: 0.027 | inactive: -0.037 | inactive: -0.025 | inactive: 0.024 | inactive: -0.042 | inactive: 0.015 |
| DHX35 (UniProt Q9H5Z1) | inactive: -0.085 | inactive: 0.046 | inactive: -0.069 | inactive: -0.061 | inactive: -0.041 | inactive: -0.057 | inactive: -0.141 | inactive: 0.104 | inactive: 0.02 | inactive: -0.057 |
| DNAJB12 (UniProt Q9NXW2) | inactive: 0.003 | inactive: 0.012 | inactive: 0.075 | inactive: -0.027 | inactive: 0.01 | inactive: -0.017 | inactive: 0.181 | inactive: -0.079 | inactive: 0.106 | inactive: -0.086 |
| DHDDS isoform 2 (UniProt Q86SQ9) | inactive: -0.017 | inactive: 0.046 | inactive: -0.046 | inactive: -0.046 | inactive: 0.024 | inactive: -0.001 | inactive: -0.092 | inactive: -0.016 | inactive: -0.011 | inactive: 0.009 |
| DIAPH3 (UniProt Q9NSV4) | inactive: 0.041 | inactive: 0.028 | inactive: 0.057 | inactive: -0.023 | inactive: -0.099 | inactive: 0.058 | inactive: -0.098 | inactive: -0.092 | inactive: 0.053 | inactive: 0.064 |
| DHX57 (UniProt Q6P158) | inactive: 0.019 | inactive: 0.031 | inactive: 0.032 | inactive: -0.045 | inactive: -0.023 | inactive: 0.056 | inactive: -0.021 | inactive: 0.009 | inactive: -0.033 | inactive: 0.039 |
| DNMT1 isoform 2 (UniProt P26358) | inactive: -0.027 | inactive: 0.01 | inactive: -0.014 | inactive: 0 | inactive: 0.012 | inactive: 0.02 | inactive: 0.02 | inactive: -0.009 | inactive: -0.002 | inactive: 0.011 |
| DIEXF (UniProt Q68CQ4) | inactive: 0.062 | inactive: -0.011 | inactive: 0.052 | inactive: -0.062 | inactive: -0.047 | inactive: 0.015 | inactive: 0.014 | inactive: 0.003 | inactive: -0.025 | inactive: -0.07 |
| DMXL1 (UniProt Q9Y485) | inactive: 0.024 | inactive: 0.028 | inactive: -0.005 | inactive: 0.015 | inactive: -0.06 | inactive: 0.026 | inactive: -0.017 | inactive: -0.004 | inactive: 0.002 | inactive: 0.023 |
| DMAP1 (UniProt Q9NPF5) | inactive: 0.007 | inactive: -0.005 | inactive: -0.064 | inactive: -0.002 | inactive: 0.075 | inactive: 0.001 | inactive: 0.053 | inactive: -0.112 | inactive: -0.012 | inactive: -0.034 |

An excerpt of these results, with bars between the fields.
Target | log2 fold change (vemurafenib) | log2 fold change [1] | log2 fold change (barasertib) | log2 fold change [2] | log2 fold change (volasertib) | log2 fold change [3] | log2 fold change [4] | log2 fold change [5] | log2 fold change (saracatinib) | log2 fold change (sotrastaurin)
DNAJB1 (UniProt P25685) | inactive: -0.066 | inactive: 0.002 | inactive: 0.03 | inactive: 0.053 | inactive: -0.054 | inactive: 0.059 | inactive: -0.035 | inactive: -0.05 | inactive: 0.012 | inactive: -0.024
DOK3 (UniProt Q7L591) | inactive: -0.041 | inactive: 0.039 | inactive: -0.054 | inactive: 0.192 | inactive: 0.008 | inactive: 0.062 | inactive: -0.127 | inactive: 0.178 | inactive: -0.018 | inactive: 0.023
DHRS2 (UniProt Q13268) | inactive: 0.001 | inactive: 0 | inactive: 0.066 | inactive: 0.011 | inactive: 0.028 | inactive: 0.046 | inactive: 0.024 | inactive: -0.118 | inactive: -0.026 | inactive: -0.036
DHRS4 (UniProt Q9BTZ2) | inactive: 0.014 | inactive: -0.017 | inactive: -0.03 | inactive: 0.019 | inactive: 0.027 | inactive: -0.037 | inactive: -0.025 | inactive: 0.024 | inactive: -0.042 | inactive: 0.015
DHX35 (UniProt Q9H5Z1) | inactive: -0.085 | inactive: 0.046 | inactive: -0.069 | inactive: -0.061 | inactive: -0.041 | inactive: -0.057 | inactive: -0.141 | inactive: 0.104 | inactive: 0.02 | inactive: -0.057
